Experiment [1] concerns the target T1, MEC-17::VC155 (C. elegans) (UniProt O45100).
T1 sequence: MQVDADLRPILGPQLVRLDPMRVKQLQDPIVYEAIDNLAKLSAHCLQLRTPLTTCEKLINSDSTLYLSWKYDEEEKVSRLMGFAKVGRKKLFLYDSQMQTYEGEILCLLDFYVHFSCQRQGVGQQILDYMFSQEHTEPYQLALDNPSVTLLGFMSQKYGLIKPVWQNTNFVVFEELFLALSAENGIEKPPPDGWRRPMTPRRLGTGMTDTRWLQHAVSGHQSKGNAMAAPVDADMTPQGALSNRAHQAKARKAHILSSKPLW
Nature of the experiment: split reporter.

Protein sequences, listed by entry. Tags and fused reporters are not part of them.
UniProt P23678: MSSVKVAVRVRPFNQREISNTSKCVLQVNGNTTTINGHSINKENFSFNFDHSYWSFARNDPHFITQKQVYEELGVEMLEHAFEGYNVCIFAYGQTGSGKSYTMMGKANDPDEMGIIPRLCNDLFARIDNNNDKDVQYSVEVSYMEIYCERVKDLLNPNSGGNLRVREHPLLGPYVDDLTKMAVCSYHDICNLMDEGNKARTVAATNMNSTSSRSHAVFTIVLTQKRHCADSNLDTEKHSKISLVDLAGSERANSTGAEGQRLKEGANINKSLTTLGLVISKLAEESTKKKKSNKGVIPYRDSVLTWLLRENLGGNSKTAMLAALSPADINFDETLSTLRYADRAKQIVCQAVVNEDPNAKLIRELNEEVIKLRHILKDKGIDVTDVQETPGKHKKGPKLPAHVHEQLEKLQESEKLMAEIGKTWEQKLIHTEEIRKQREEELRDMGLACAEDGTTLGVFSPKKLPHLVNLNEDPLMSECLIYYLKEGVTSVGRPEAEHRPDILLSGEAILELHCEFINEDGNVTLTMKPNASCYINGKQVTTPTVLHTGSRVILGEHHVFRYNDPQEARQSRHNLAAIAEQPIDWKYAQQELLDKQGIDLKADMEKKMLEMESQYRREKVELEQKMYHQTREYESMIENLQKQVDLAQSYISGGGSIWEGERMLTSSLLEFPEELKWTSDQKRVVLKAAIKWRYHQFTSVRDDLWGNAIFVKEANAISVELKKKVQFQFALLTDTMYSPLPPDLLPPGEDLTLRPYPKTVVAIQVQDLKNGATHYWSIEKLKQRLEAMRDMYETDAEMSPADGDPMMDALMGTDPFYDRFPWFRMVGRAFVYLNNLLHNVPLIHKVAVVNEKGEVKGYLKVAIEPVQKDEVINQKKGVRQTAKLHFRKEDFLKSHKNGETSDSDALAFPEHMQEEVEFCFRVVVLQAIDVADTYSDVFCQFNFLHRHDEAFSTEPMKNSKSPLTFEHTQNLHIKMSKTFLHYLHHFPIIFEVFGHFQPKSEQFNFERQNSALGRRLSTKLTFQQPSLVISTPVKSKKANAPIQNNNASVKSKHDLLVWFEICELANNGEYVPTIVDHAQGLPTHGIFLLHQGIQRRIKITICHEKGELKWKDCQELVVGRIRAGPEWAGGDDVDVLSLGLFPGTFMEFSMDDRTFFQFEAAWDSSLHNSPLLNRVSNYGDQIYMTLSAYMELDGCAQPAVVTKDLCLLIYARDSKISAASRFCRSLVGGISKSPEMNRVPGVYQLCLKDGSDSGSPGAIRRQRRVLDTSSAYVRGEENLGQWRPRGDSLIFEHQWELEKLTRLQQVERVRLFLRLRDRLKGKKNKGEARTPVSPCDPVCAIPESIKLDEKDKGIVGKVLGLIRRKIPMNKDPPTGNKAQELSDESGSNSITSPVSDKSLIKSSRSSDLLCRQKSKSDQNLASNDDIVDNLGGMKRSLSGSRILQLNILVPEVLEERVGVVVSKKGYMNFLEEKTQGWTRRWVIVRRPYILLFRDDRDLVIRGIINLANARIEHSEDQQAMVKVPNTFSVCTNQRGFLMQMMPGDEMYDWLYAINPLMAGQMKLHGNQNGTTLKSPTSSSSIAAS

Experiment [2] has as its target T2, UNC-17::VC155 (C. elegans) (UniProt P34711).
T2 sequence: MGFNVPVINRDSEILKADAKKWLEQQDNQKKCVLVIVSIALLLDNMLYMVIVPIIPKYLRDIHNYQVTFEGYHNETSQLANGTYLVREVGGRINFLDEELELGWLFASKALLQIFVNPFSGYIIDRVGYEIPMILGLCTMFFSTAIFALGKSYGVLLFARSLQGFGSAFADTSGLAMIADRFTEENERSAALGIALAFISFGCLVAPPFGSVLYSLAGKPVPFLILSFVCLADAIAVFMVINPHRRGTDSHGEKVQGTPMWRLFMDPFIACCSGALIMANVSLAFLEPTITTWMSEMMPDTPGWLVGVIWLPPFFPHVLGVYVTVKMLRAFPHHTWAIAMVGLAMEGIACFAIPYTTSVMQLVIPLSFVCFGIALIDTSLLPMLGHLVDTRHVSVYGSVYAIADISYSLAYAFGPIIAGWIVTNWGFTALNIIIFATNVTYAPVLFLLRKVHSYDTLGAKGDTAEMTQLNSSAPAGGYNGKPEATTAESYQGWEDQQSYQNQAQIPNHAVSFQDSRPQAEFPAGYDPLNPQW
Put plainly: split reporter.

The next experiment deals with T3, MEC-17::GFP (C. elegans) (UniProt O45100).
T3 sequence: T1 sequence
Nature of the experiment: co-IP.

The next experiment has as its target T4, UNC-17::GFP (C. elegans) (UniProt P34711).
T4 sequence: T2 sequence
Nature of the experiment: co-IP.

Results are given in words; binding and its absence hold for the method and conditions named. In cells and extracts the contact can be indirect. Some binding calls cover weakened binding; strength is not graded here. For some of these results: Sequences can lack the tags named with a protein.

On to “UNC-104::VN173 (from UniProt P23678 1-1584)”, for which the binding result in experiment [1] and in experiment [2] was “binds” in each case.
On to “UNC-104::mRFP (from UniProt P23678 1-1584)”, for which the binding result with MEC-17::GFP (C. elegans) and with UNC-17::GFP (C. elegans) was “binds” in each case.
